In PubChem BioAssay AID504444 (National Center for Advancing Translational Sciences (NCATS), 2011):
About 7,500 (2.1%) of roughly 360,000 compounds were called active. Inconclusive means that the source gave no clear call. Such entries were picked first, then a sample of the others. Calls come from the whole dose curve; as a rule, active = well fitted inhibition curve with a large enough effect; inconclusive = small, poorly fitted or top-dose-only effect, or effect the other way; inactive = flat fitted curve, though single readings scatter. A potency beside an inconclusive call is a rough fit, not a confirmed value.

assay: Nrf2 qHTS screen for inhibitors; conditions: A549 ARE-Fluc reporter, luciferase luminescence, 18-24 h; activity change, negative = inhibition: at 46 µM (top of the series); note: nearly all actives have a fitted effect of over 60% in size
How it was run: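 Two sequential reads on A549 ARE_Fluc cells exposed to compound for 18-24 h: a CellTiter-Fluor fluorescence read for viability, then a luciferase luminescence read for Nrf2/ARE activity.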
% is set by controls: 0 for no effect and ±100 for the full control effect; potency is the fitted concentration of half-maximal effect.

SMILES | Potency | activity change, negative = inhibition
Cc1cccc(NS(=O)(=O)c2nnc(NC(=O)C3CCCCC3)s2)c1 | inconclusive: 0.517 µM [falling, full curve, poor fit] | 
O=C(NC1CCCc2c1cnn2-c1ccccc1F)c1ccccn1 (stereo not drawn) | inconclusive: 2.91 µM [activator, full curve, poor fit] | 
Cc1nc2c(C)cccn2c(=O)c1NC(=O)c1ccc2c(c1)OCO2 |  | inactive: 15.5%
C[C@@H]1CN([C@@H](C)CO)C(=O)c2cc(NC(=O)Nc3ccc4c(c3)OCO4)ccc2O[C@H]1CN(C)S(=O)(=O)c1ccc(F)cc1 |  | inactive: -5.47%
COc1ccccc1NC(=S)NNC(=O)c1ccccc1Br | inconclusive: 1.64 µM [activator, full curve] | 
CCOC(=O)c1ccc(NC(=O)c2ccc3c(c2)CCN3S(=O)(=O)c2ccc(Cl)cc2)cc1 | inconclusive: 23.1 µM [falling, single point] | 
COc1ccc(N(CC(=O)NCc2ccc(F)cc2)C(=O)CCC(=O)Nc2ccccn2)cc1 | inconclusive: 4.11 µM [activator, single point] | 
Cc1ccc(-n2nc(CO)c(C(=O)NCCO)n2)cc1 | inconclusive: 4.61 µM [activator, partial curve] | 
CC(CNC(=O)c1ccc(Cn2c(SCc3ccccc3)nc3cccnc32)cc1)c1ccccc1 (stereo not drawn) | inconclusive: 6.51 µM [falling, partial curve] | 
O=C(CCCN1C(=O)/C(=C\c2cccc(Br)c2)SC1=S)Nc1cccnc1 | inconclusive: 29.1 µM [falling, single point] | 
O=C(CCCc1ccccc1)N=C1SC2CS(=O)(=O)CC2N1c1ccccc1 (stereo not drawn) | inconclusive: 18.4 µM [falling, partial curve, poor fit] | 
COc1cccc(CN2CCN(C(=S)NCc3ccc(Cl)cc3)CC2)c1 | inconclusive: 29.1 µM [falling, single point] | 
CCc1nn(C(C)C(=O)Nc2cccc(C)c2C)c(=O)c2cc3occc3n12 (stereo not drawn) | inconclusive: 29.1 µM [falling, single point] | 
O=C1c2ccccc2C(=O)N1CCCCN(C(=O)c1ccc([N+](=O)[O-])cc1)c1ccc(Cl)cc1 | inconclusive: 18.4 µM [falling, single point] | 
CCOc1ccc(-c2cc(C(=O)OC)[nH]n2)cc1 | inconclusive: 13 µM [activator, partial curve] | 
CCc1cccc(NC(=O)CC2Oc3ccc(C)cc3NC2=O)c1 (stereo not drawn) |  | inactive: 15.3%
OC1(c2ccc(Br)cc2)CCN(Cc2cccc(Br)c2)CC1 |  | inactive: -1.11%
Cc1cccc(NC(=O)CSCC(=O)N(C)CCOc2ccc(Cl)cc2)c1 | inconclusive: 23.1 µM [falling, single point] | 
O=C(COC(=O)/C=C/c1cccs1)Nc1nc(-c2cccc(Br)c2)cs1 |  | inactive: 14.4%
CCCN(CC(=O)Nc1ccccc1C)C(=O)C1CCN(C(=O)Nc2ccccc2)CC1 | inconclusive: 5.8 µM [activator, partial curve] | 
CCc1ccc(C(=O)/C=C/c2cnn(C)c2C)s1 | inconclusive: 20.6 µM [activator, partial curve] | 

2 records drawn at random from those above:
SMILES | Potency | activity change, negative = inhibition
Cc1ccc(-n2nc(CO)c(C(=O)NCCO)n2)cc1 | inconclusive: 4.61 µM [activator, partial curve] | 
O=C1c2ccccc2C(=O)N1CCCCN(C(=O)c1ccc([N+](=O)[O-])cc1)c1ccc(Cl)cc1 | inconclusive: 18.4 µM [falling, single point] | 

Next entries:

SMILES | Potency | activity change, negative = inhibition
COc1ccc(NC(=O)COc2ccc(N(C)S(=O)(=O)c3ccc(C)cc3)cc2)cc1 | inconclusive: 29.1 µM [falling, single point] | 
C=C(C)Cn1c(SCC(=O)Nc2cccc(Cl)c2)nc2sc3c(c2c1=O)CCCC3 | inconclusive: 0.82 µM [falling, full curve, poor fit] | 
CC1=C(C(=O)OC(C)C)C(c2ccc(N(C)C)cc2)C2=C(CC(C)(C)CC2=O)N1 (stereo not drawn) | inconclusive: 29.1 µM [falling, single point] | 
COc1cc(NC(=O)Cc2ccc(OC)c(S(=O)(=O)N3CCOCC3)c2)c(OC)cc1Cl | inconclusive: 23.1 µM [falling, single point] | 
COc1ccc(OCCCC(=O)N(CCC2=CCCCC2)c2c(N)n(Cc3ccccc3)c(=O)[nH]c2=O)cc1 |  | inactive: -2.74%
COCCCN1CC(=O)N2C(c3ccccc3)c3[nH]c4ccccc4c3C[C@H]2C1=O (stereo partly drawn) |  | inactive: 6.69%
Cc1ccc(S(=O)(=O)Nc2ccc3c(c2)c2c(n3S(=O)(=O)c3ccc(C)cc3)CCCC2=O)cc1 | inconclusive: 23.1 µM [falling, single point] | 
Clc1ccc(OCc2nc(-c3ccncc3)no2)cc1 | inconclusive: 18.4 µM [activator, partial curve, poor fit] | 
Nc1nnc(SCC(=O)N2CCc3ccccc3C2)s1 | inconclusive: 25.9 µM [activator, single point] | 
CC(C)CC(NC(=O)C1CCC(C)CC1)C(=O)Nc1ccc2c(c1)OCCO2 (stereo not drawn) | inconclusive: 13 µM [activator, partial curve, poor fit] | 
CC(C)(C)OC(=O)N(CCc1ccccc1)Cc1ccccc1OCc1cccc(NC(=O)C2CC2)c1 | active: 20.6 µM | 
CC(C)C(=O)N1CCN(c2ccccc2NC(=O)c2cc([N+](=O)[O-])ccc2N2CCOCC2)CC1 | inconclusive: 29.1 µM [falling, single point] | 
Cn1c(SCC(=O)N/N=C/c2ccc(O)c(O)c2)nc2ccccc21 | inconclusive: 23.1 µM [activator, single point] | 
O=C(COc1ccccc1F)Nc1ccc(Cl)c(-c2nc3ccccc3[nH]2)c1 |  | inactive: -16.3%
CCN(Cc1ccc(Cl)s1)C(=O)c1cccc(OCc2c(C)noc2C)c1 | inconclusive: 29.1 µM [falling, single point] | 
CCn1c(SC)nnc1-c1sc2cc(Cl)ccc2c1Cl | inconclusive: 9.2 µM [falling, partial curve] | 
CCOc1ccccc1NC(=O)c1cccc(NC2=NC3CS(=O)(=O)CC3S2)c1 (stereo not drawn) | inconclusive: 3.26 µM [falling, full curve, poor fit] | 
Cc1ccc2occ(/C=N/NC(=O)c3ccccc3O)c(=O)c2c1 |  | inactive: -26.8%
CCS(=O)c1ccccc1C(=O)OCC(=O)Nc1cccc(S(=O)(=O)N2CCCCC2)c1 (stereo not drawn) | active: 20.6 µM | 
Cc1ccc(OCC(=O)c2cc(C)n(CC(F)(F)F)c2C)c([N+](=O)[O-])n1 | inconclusive: 29.1 µM [activator, single point] | 
COc1ccc(-n2c(=O)c3c(c4cc(OC)ccc4n3C)n(C)c2=O)cc1 | inconclusive: 11.6 µM [activator, partial curve, poor fit] | 

Look-ups from above.
For activity change, negative = inhibition, CCc1cccc(NC(=O)CC2Oc3ccc(C)cc3NC2=O)c1 (stereo not drawn) is listed with inactive: 15.3%
For activity change, negative = inhibition, Cc1ccc2occ(/C=N/NC(=O)c3ccccc3O)c(=O)c2c1 is listed with inactive: -26.8%
For Potency, CC(C)(C)OC(=O)N(CCc1ccccc1)Cc1ccccc1OCc1cccc(NC(=O)C2CC2)c1 is listed with active: 20.6 µM

Later entries

SMILES | Potency | activity change, negative = inhibition
N#Cc1c(N)n(C2OC(CO)C(O)C2O)c2ncnc(N)c12 (stereo not drawn) | inconclusive: 2.06 µM [falling, full curve, poor fit] | 
CCOc1ccc(NC(=O)Cn2cc(C(=O)c3ccc(CC)cc3)c(=O)c3ccc(C)nc32)cc1 | inconclusive: 29.1 µM [falling, single point] | 
CC[C@]12c3[nH]c4cc(CCC(=O)N(C)C)ccc4c3CCN1C(=O)[C@@H](CC(=O)NCCc1ccccn1)C[C@@H]2C(=O)N1CCN(C(=O)C2CC2)CC1 | inconclusive: 20.6 µM [activator, partial curve, poor fit] | 
O=C(OCc1nc2ccccc2s1)C1CCN(C2=NS(=O)(=O)c3ccccc32)CC1 | inconclusive: 18.4 µM [activator, partial curve, poor fit] | 
COc1ccc(-c2cc(C(F)(F)F)nc(NC3CCCC3)n2)cc1OC | inconclusive: 29.1 µM [falling, single point] | 
C[C@@H](NC(=O)c1[nH]cnc1C(=O)Nc1ccc(Cl)cc1)c1ccccc1 | active: 5.8 µM | 
CCOc1cc(C(=O)NC(C)Cc2cccs2)cc(OCC)c1OCC (stereo not drawn) |  | inactive: 4.77%
CCOC(=O)c1ccccc1NC(=O)c1ccc2nccnc2c1 | inconclusive: 29.1 µM [falling, single point] | 
Cc1noc2ncnc(NCc3ccccc3Cl)c12 | inconclusive: 14.6 µM [falling, single point] | 
Nc1cc(C(=O)O)c(N)c2c1C(=O)c1ccccc1C2=O | inconclusive: 18.4 µM [falling, single point] | 
Cc1sc2c(c1C)C(=O)NC(c1ccccc1F)N2 (stereo not drawn) | inconclusive: 18.4 µM [activator, partial curve] | 
COc1ccc(OC)c(NC(=O)c2sc3nc4c(cc3c2N)CCCCCC4)c1 | inconclusive: 23.1 µM [activator, partial curve] | 
Cc1ccc(C)c(N2CCN(C(c3ccc(F)cc3)c3nnc(-c4ccccc4)o3)CC2)c1 (stereo not drawn) |  | inactive: -32.1%
COc1ccc(N(CC(=O)NC2CCCCC2C)S(=O)(=O)c2c(C)nn(C)c2C)cc1 (stereo not drawn) | inconclusive: 18.4 µM [falling, single point] | 
CC(C)(C)c1ccc(C(=O)CC(Sc2ccc(Cl)cc2)C(=O)O)cc1 (stereo not drawn) |  | inactive: 1.48%
Cn1/c(=N/NC(=O)c2ccccc2F)sc2ccccc21 | inconclusive: 10.3 µM [activator, partial curve, poor fit] | 
COc1ccc(NC(=O)CSc2n[nH]c(C(C)C)n2)c([N+](=O)[O-])c1 | inconclusive: 10.3 µM [falling, partial curve, poor fit] | 
COc1cccc(OC)c1C(=O)NC(=S)NCc1ccccc1 | inconclusive: 29.1 µM [activator, single point] | 
CCN(Cc1ccccc1)C(=O)Cn1c(=O)oc2cc(S(=O)(=O)N3CCCCCC3)ccc21 |  | inactive: -20%
COc1ccc(NS(=O)(=O)c2cc(NC(=O)/C=C/c3cccs3)ccc2N2CCOCC2)cc1 | inconclusive: 29.1 µM [falling, single point] | 
Cc1ccc(NC(=O)c2ccco2)nc1 | inconclusive: 1.46 µM [activator, full curve, poor fit] | 
